For at least one entry, the source does not settle the construct or the ends of the probe. For part of these data: At least one verdict rests on a figure or table, not on a statement of the authors. For part of these data: Tags and fusion partners may be left off the protein sequences shown.
What was measured:
Assay in all cases: EMSA
[1] = tested on: CtNAT10 R637A + CtTHUMPD1; conditions: tRNA pre-incubated with 0.75 uM THUMPD1, no difference from WT; 50 mM Hepes-KOH pH 7.6, 90 mM NaCl (Fig 1B) or 75 mM NaCl + 0.2 mg/ml BSA (Fig S4A), 12 mM KCl, 10 mM MgCl2, 1 mM DTT, 0.5 mM ATP, 0.1 mM acetyl-CoA; recombinant protein; protein details: N-terminal 6xHis,GST tag removed by TEV
[2] = tested on: CtNAT10 K427A + CtTHUMPD1; conditions: tRNA pre-incubated with 0.75 uM THUMPD1, no difference from WT; 50 mM Hepes-KOH pH 7.6, 90 mM NaCl (Fig 1B) or 75 mM NaCl + 0.2 mg/ml BSA (Fig S4A), 12 mM KCl, 10 mM MgCl2, 1 mM DTT, 0.5 mM ATP, 0.1 mM acetyl-CoA; recombinant protein; protein details: N-terminal 6xHis,GST tag removed by TEV
CtNAT10 WT + CtTHUMPD1 = conditions: 50 mM Hepes-KOH pH 7.6, 90 mM NaCl (Fig 1B) or 75 mM NaCl + 0.2 mg/ml BSA (Fig S4A), 12 mM KCl, 10 mM MgCl2, 1 mM DTT, 0.5 mM ATP, 0.1 mM acetyl-CoA, recombinant protein, protein details: N-terminal 6xHis,GST tag removed by TEV
[3] = biological target: T1, CtNAT10 WT (Chaetomium thermophilum) (UniProt G0S273); conditions: 0.1 mM acetyl-CoA, 50 mM Hepes-KOH pH 7.6, 90 mM NaCl (Fig 1B) or 75 mM NaCl + 0.2 mg/ml BSA (Fig S4A), 12 mM KCl, 10 mM MgCl2, 1 mM DTT, recombinant protein, residues 1-1073, protein details: N-terminal 6xHis
T1 sequence (looked up): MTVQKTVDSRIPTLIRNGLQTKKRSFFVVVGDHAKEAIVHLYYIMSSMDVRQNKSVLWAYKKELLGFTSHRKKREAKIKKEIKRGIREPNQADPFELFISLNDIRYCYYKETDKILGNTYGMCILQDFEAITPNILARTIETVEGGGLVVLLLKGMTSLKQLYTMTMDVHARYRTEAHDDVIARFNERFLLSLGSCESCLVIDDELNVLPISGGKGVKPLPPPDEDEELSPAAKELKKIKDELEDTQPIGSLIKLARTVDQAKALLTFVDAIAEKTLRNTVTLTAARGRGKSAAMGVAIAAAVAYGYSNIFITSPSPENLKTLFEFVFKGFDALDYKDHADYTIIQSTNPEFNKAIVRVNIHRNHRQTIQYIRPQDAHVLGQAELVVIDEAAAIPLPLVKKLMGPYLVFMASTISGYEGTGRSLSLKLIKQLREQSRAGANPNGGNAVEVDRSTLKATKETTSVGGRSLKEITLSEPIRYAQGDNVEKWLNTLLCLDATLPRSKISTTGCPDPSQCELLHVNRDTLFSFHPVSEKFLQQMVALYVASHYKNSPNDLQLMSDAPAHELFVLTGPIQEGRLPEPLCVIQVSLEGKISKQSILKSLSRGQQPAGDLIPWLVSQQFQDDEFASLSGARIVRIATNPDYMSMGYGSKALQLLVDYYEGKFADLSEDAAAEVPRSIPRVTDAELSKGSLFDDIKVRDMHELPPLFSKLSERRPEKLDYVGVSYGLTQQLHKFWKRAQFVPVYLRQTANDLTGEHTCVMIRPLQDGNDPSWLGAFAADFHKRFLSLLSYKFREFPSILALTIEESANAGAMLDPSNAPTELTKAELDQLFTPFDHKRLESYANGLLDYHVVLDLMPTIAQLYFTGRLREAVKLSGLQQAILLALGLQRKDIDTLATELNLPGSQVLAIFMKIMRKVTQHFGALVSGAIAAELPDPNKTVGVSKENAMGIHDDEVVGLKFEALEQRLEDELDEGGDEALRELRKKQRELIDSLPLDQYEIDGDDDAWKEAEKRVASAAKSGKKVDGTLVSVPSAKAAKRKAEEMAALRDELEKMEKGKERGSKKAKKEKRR

[4] = tRNA pre-incubated with 0.75 uM THUMPD1
[5] = NAT10 and THUMPD1 pre-assembled 1:1

Measured: binding result

GGGCGUGUAGCUCAGUUGGUAGAGCGUUCGCUUAGCAUGCGAGAGGUCCUGGGUUCGAUUCCCAGCCCGUCCA [CttRNAAla (IVT)]
binds: [1] | [2] | CtNAT10 WT + CtTHUMPD1; NAT10 and THUMPD1 pre-assembled 1:1, affinity similar to cognate | CtNAT10 WT + CtTHUMPD1; [4]

GACAACUUGGCCGAGUGGUUAAGGCGACAGACUUGAAAUCUGUUGGGUUCGCCCUCACAGGUUCGAAUCCUGUAGUUGUCG [CttRNASer (IVT)]
binds: [3]; no THUMPD1, 0.5 mM ATP | [1] | [2] | CtNAT10 WT + CtTHUMPD1; [5] | CtNAT10 WT + CtTHUMPD1; [4]

GGCAAGAUGGCCGAGCGGUCCAAGGCGCCAGGUUCAGGUCCUGGUCUCCGCAAGGGGGCGUGAGUUCGAAUCUCACUCUUGUCA [CttRNALeu (IVT)]
binds: [3]; no THUMPD1, 0.5 mM ATP | [1] | [2] | CtNAT10 WT + CtTHUMPD1; [5] | CtNAT10 WT + CtTHUMPD1; [4]

GAGGAAGUAAAAGUCGUAACAAGGUCUCCGUAGGUGAACCUGCGGAGGGAUCAU [ct-rRNA h45]
binds: [3]; 0.5 mM ATP

— PMC13433802, “Structure of the NAT10 acetyltransferase and mechanism of tRNA acetylation” (Nature Communications, 2026)
